Measured data: PubChem BioAssay AID1224830 (NIAID, 2016)
Here is one part, drawn at random, of about 18,000 deposited reagents. Of all reagents, about 2,900 (16%) got an active call. 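Calls are made per well; low scores hint the gene aids the LPS response, high scores that it dampens it.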 Unmarked entries are inactive. Reagents against one gene are numbered here. Repeated entries: four replicate wells of each siRNA pool.

- Purpose: 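Genes whose knock-down alters the TNF-alpha reporter response to LPS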 (primary screen)
- System: human THP-1 monocytic leukaemia cells, TNF dual-luciferase reporter clone, PMA-differentiated to macrophage-like cells
- Reagent: siRNA pool against human genes, 50 nM
- Timing: LPS for 4 h, given about 3 days after siRNA transfection
- Conditions: bacterial LPS (TLR4 ligand), 10 ng/ml
- Measured: 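Ratio of firefly to renilla light, scaled to the plate median and expressed as a robust z-score per replicate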
- Scale: TNF reporter robust z-score: higher = stronger TNF reporter response to LPS
- Hit rule: 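Each well counts as active if its z-score is over 2.8 or under -1.5; controls are left without a call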

| TNF reporter robust z-score | gene symbol | reagent no. |
| --- | --- | --- |
| 0.55 | MTFR2 (GeneID 113115) | 1 |
| 2.05 | MTFR2 (GeneID 113115) | 1 |
| 1.55 | MTFR2 (GeneID 113115) | 1 |
| -0.26 | MTFR2 (GeneID 113115) | 1 |
| -0.6 | TRIM64C (GeneID 646754) | 1 |
| 0.16 | TRIM64C (GeneID 646754) | 1 |
| 0.28 | TRIM64C (GeneID 646754) | 1 |
| -0.92 | TRIM64C (GeneID 646754) | 1 |
| 0.84 | TRIM64C (GeneID 646754) | 2 |
| -0.61 | TRIM64C (GeneID 646754) | 2 |
| -0.54 | TRIM64C (GeneID 646754) | 2 |
| -0.1 | TRIM64C (GeneID 646754) | 2 |
| -1.46 | HERC2P3 (GeneID 283755) | 1 |
| -1.48 | HERC2P3 (GeneID 283755) | 1 |
| -1.82 (active) | HERC2P3 (GeneID 283755) | 1 |
| -0.3 | HERC2P3 (GeneID 283755) | 1 |
| 0.37 | S100A4 (GeneID 6275) | 1 |
| 1.18 | S100A4 (GeneID 6275) | 1 |
| 0.8 | S100A4 (GeneID 6275) | 1 |
| 0.31 | S100A4 (GeneID 6275) | 1 |
| -0.71 | MYO1C (GeneID 4641) | 1 |
| -0.83 | MYO1C (GeneID 4641) | 1 |
| -0.61 | MYO1C (GeneID 4641) | 1 |
| -0.47 | MYO1C (GeneID 4641) | 1 |
| -0.23 | FSIP1 (GeneID 161835) | 1 |
| -0.42 | FSIP1 (GeneID 161835) | 1 |
| -0.07 | FSIP1 (GeneID 161835) | 1 |
| -1.46 | FSIP1 (GeneID 161835) | 1 |
| 0.76 | MLYCD (GeneID 23417) | 1 |
| -1.02 | MLYCD (GeneID 23417) | 1 |
| -0.96 | MLYCD (GeneID 23417) | 1 |
| -1.25 | MLYCD (GeneID 23417) | 1 |
| 2.26 | RPL9 (GeneID 6133) | 1 |
| 0.74 | RPL9 (GeneID 6133) | 1 |
| 0.5 | RPL9 (GeneID 6133) | 1 |
| 0.3 | RPL9 (GeneID 6133) | 1 |
| 0.37 | CDK15 (GeneID 65061) | 1 |
| -0.06 | CDK15 (GeneID 65061) | 1 |
| -0.32 | CDK15 (GeneID 65061) | 1 |
| 0 | CDK15 (GeneID 65061) | 1 |
| 0.23 | GPD1 (GeneID 2819) | 1 |
| 0.25 | GPD1 (GeneID 2819) | 1 |
| 0.34 | GPD1 (GeneID 2819) | 1 |
| 0.38 | GPD1 (GeneID 2819) | 1 |
| -0.53 | EDEM1 (GeneID 9695) | 1 |
| -0.56 | EDEM1 (GeneID 9695) | 1 |
| -0.88 | EDEM1 (GeneID 9695) | 1 |
| 1.17 | EDEM1 (GeneID 9695) | 1 |
| 1.21 | GLTPD2 (GeneID 388323) | 1 |
| 1.34 | GLTPD2 (GeneID 388323) | 1 |
| 1.61 | GLTPD2 (GeneID 388323) | 1 |
| 0.65 | GLTPD2 (GeneID 388323) | 1 |
| -1.55 (active) | GRIN2D (GeneID 2906) | 1 |
| -0.46 | GRIN2D (GeneID 2906) | 1 |
| -0.34 | GRIN2D (GeneID 2906) | 1 |
| -0.53 | GRIN2D (GeneID 2906) | 1 |
| 0.17 | DNPH1 (GeneID 10591) | 1 |
| -0.27 | DNPH1 (GeneID 10591) | 1 |
| 0.51 | DNPH1 (GeneID 10591) | 1 |
| 0.2 | DNPH1 (GeneID 10591) | 1 |
| 0.58 | CXCL5 (GeneID 6374) | 1 |
| 0.51 | CXCL5 (GeneID 6374) | 1 |
| 0.19 | CXCL5 (GeneID 6374) | 1 |
| -0.03 | CXCL5 (GeneID 6374) | 1 |
| -0.42 | FNDC11 (GeneID 79025) | 1 |
| -0.07 | FNDC11 (GeneID 79025) | 1 |
| 0.06 | FNDC11 (GeneID 79025) | 1 |
| 0.02 | FNDC11 (GeneID 79025) | 1 |
| 0.59 | S1PR4 (GeneID 8698) | 1 |
| 0.91 | S1PR4 (GeneID 8698) | 1 |
| 1.02 | S1PR4 (GeneID 8698) | 1 |
| 0.9 | S1PR4 (GeneID 8698) | 1 |
| 0.51 | MOB3C (GeneID 148932) | 1 |
| 1.47 | MOB3C (GeneID 148932) | 1 |
| 0.07 | MOB3C (GeneID 148932) | 1 |
| 1.72 | MOB3C (GeneID 148932) | 1 |
| 2.52 | POLR3C (GeneID 10623) | 1 |
| 2.15 | POLR3C (GeneID 10623) | 1 |
| 1.64 | POLR3C (GeneID 10623) | 1 |
| 2.07 | POLR3C (GeneID 10623) | 1 |
| -0.65 | IL10 (GeneID 3586) | 1 |
| 0.61 | IL10 (GeneID 3586) | 1 |
| -0.97 | IL10 (GeneID 3586) | 1 |
| -0.08 | IL10 (GeneID 3586) | 1 |
| 2.83 (active) | POMZP3 (GeneID 22932) | 1 |
| 2.15 | POMZP3 (GeneID 22932) | 1 |
| 0.75 | POMZP3 (GeneID 22932) | 1 |
| 0.41 | POMZP3 (GeneID 22932) | 1 |
| 0.57 | RFLNB (GeneID 359845) | 1 |
| 1.91 | RFLNB (GeneID 359845) | 1 |
| 2.97 (active) | RFLNB (GeneID 359845) | 1 |
| 2.25 | RFLNB (GeneID 359845) | 1 |
| 1.92 | IGF2BP1 (GeneID 10642) | 1 |
| 1.08 | IGF2BP1 (GeneID 10642) | 1 |
| 1.49 | IGF2BP1 (GeneID 10642) | 1 |
| 2.7 | IGF2BP1 (GeneID 10642) | 1 |
| -0.43 | NUBP2 (GeneID 10101) | 1 |
| -0.37 | NUBP2 (GeneID 10101) | 1 |
| -0.49 | NUBP2 (GeneID 10101) | 1 |
| -0.03 | NUBP2 (GeneID 10101) | 1 |
| 0.77 | DAW1 (GeneID 164781) | 1 |
| 2.21 | DAW1 (GeneID 164781) | 1 |
| 1.05 | DAW1 (GeneID 164781) | 1 |
| 1.86 | DAW1 (GeneID 164781) | 1 |
| -1.32 | EFCAB6 (GeneID 64800) | 1 |
| -0.91 | EFCAB6 (GeneID 64800) | 1 |
| -0.86 | EFCAB6 (GeneID 64800) | 1 |
| -0.56 | EFCAB6 (GeneID 64800) | 1 |
| 2.6 | SPACA9 (GeneID 11092) | 1 |
| 0.59 | SPACA9 (GeneID 11092) | 1 |
| 2.94 (active) | SPACA9 (GeneID 11092) | 1 |
| 3.08 (active) | SPACA9 (GeneID 11092) | 1 |
| -0.05 | NLN (GeneID 57486) | 1 |
| -1.11 | NLN (GeneID 57486) | 1 |
| -0.42 | NLN (GeneID 57486) | 1 |
| -2.14 (active) | NLN (GeneID 57486) | 1 |
| -0.14 | AMPD3 (GeneID 272) | 1 |
| 1.18 | AMPD3 (GeneID 272) | 1 |
| 0.48 | AMPD3 (GeneID 272) | 1 |
| 0.55 | AMPD3 (GeneID 272) | 1 |
| 0.29 | NUDC (GeneID 10726) | 1 |
| -0.16 | NUDC (GeneID 10726) | 1 |
| -0.08 | NUDC (GeneID 10726) | 1 |
| -0.1 | NUDC (GeneID 10726) | 1 |
| -0.92 | LIMS3 (GeneID 96626) | 1 |
| -0.57 | LIMS3 (GeneID 96626) | 1 |
| -0.48 | LIMS3 (GeneID 96626) | 1 |
| -0.18 | LIMS3 (GeneID 96626) | 1 |
| 0.01 | CDC37P1 (GeneID 390688) | 1 |
| -0.15 | CDC37P1 (GeneID 390688) | 1 |
| 0.03 | CDC37P1 (GeneID 390688) | 1 |
| -0.44 | CDC37P1 (GeneID 390688) | 1 |
| 0.25 | SATL1 (GeneID 340562) | 1 |
| 0.62 | SATL1 (GeneID 340562) | 1 |
| 0.24 | SATL1 (GeneID 340562) | 1 |
| 0.89 | SATL1 (GeneID 340562) | 1 |
| -0.03 | CD247 (GeneID 919) | 1 |
| 1.44 | CD247 (GeneID 919) | 1 |
| -0.08 | CD247 (GeneID 919) | 1 |
| 1.04 | CD247 (GeneID 919) | 1 |

13 consecutive reagents already listed:
| TNF reporter robust z-score | gene symbol | reagent no. |
| --- | --- | --- |
| 0.57 | RFLNB (GeneID 359845) | 1 |
| 1.91 | RFLNB (GeneID 359845) | 1 |
| 2.97 (active) | RFLNB (GeneID 359845) | 1 |
| 2.25 | RFLNB (GeneID 359845) | 1 |
| 1.92 | IGF2BP1 (GeneID 10642) | 1 |
| 1.08 | IGF2BP1 (GeneID 10642) | 1 |
| 1.49 | IGF2BP1 (GeneID 10642) | 1 |
| 2.7 | IGF2BP1 (GeneID 10642) | 1 |
| -0.43 | NUBP2 (GeneID 10101) | 1 |
| -0.37 | NUBP2 (GeneID 10101) | 1 |
| -0.49 | NUBP2 (GeneID 10101) | 1 |
| -0.03 | NUBP2 (GeneID 10101) | 1 |
| 0.77 | DAW1 (GeneID 164781) | 1 |
